Reference: PubChem BioAssay AID493014 (National Center for Advancing Translational Sciences (NCATS), 2011)
Some of the results follow. Further columns of the screen follow, without active or inactive calls. Most of these compounds were active or inconclusive in the main read-out, so they are no random draw. Words in brackets tell the shape of the fitted curve; partial curves, single points and poor fits give uncertain potencies.

assay: qHTS Assay to Find Inhibitors of Chronic Active B-Cell Receptor Signaling; settings: ABC-DLBCL IkBa-CBG/CBR reporter, luminescence ratio (green luciferase fused to IkBa over red control in TMD8 lymphoma cells), 4 h; measured here: CBR red luminescence, cell number
Procedure, shortened: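 Concentration-response series (up to 46 uM) were applied to TMD8 dual-reporter cells for 4 h at 37C with doxycycline. Green/red ratio, after filter-overlap correction, defined %Activity; red signal alone was normalised to basal cells and zero luminescence.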

**Q.** With O=S(=O)(c1cccs1)N1CN(Cc2ccco2)c2nc3ccccc3nc21 as the compound, how does the AC50 read?
**A.** The AC50 was 35.5 µM [falling, single point].

**Q.** With Fc1ccc(Nc2nc(-c3cccnc3)cs2)cc1 as the compound, how does the AC50 read?
**A.** Its AC50 is 0.708 µM [rising, full curve, poor fit].

**Q.** Which AC50 does the source give for CC(C)c1ccc(NC(=O)CNC(=O)Cn2cnc3ccccc3c2=O)cc1 here?
**A.** Its AC50 is 20 µM [rising, single point].

**Q.** Which AC50 does the source give for CC(C)CCn1nc(C(=O)Nc2nc3c(s2)CCCC3)c2ccccc2c1=O here?
**A.** Its AC50 is 18.4 µM [rising, partial curve].

**Q.** With CCc1ccc(OC)c(S(=O)(=O)NCc2cccs2)c1 as the compound, how does the AC50 read?
**A.** Its AC50 is 0.146 µM [rising, full curve, poor fit].

**Q.** For O=[N+]([O-])c1cccc(/C=C/c2nc(C=Nc3ccccc3)c(O)o2)c1, which AC50 is on record?
**A.** Its AC50 is 8.2 µM [rising, single point].

**Q.** Which AC50 does the source give for O=C(c1c[nH]c(C(=O)C(Cl)(Cl)Cl)c1)c1ccccc1F here?
**A.** The AC50 was 10 µM [falling, partial curve].

**Q.** For O=C(O)CCC(=O)N1N=C(c2c(-c3ccccc3)c3cc(Cl)ccc3[nH]c2=O)CC1c1cccs1 (centres undefined), which AC50 is on record?
**A.** The AC50 was 20.6 µM [falling, single point].

**Q.** With CC1(C)CC(=O)C2=C(C1)N(Cc1ccco1)C(=O)C2(NC(=O)C1CCCCC1)C(F)(F)F (centres undefined) as the compound, how does the AC50 read?
**A.** Its AC50 is 29.1 µM [falling, single point].

**Q.** Which AC50 does the source give for C(=N\Nc1nc(Nc2ccccc2)nc(Nc2ccccc2)n1)/c1cccnc1 here?
**A.** The AC50 was 1.58 µM [falling, full curve].

**Q.** With Cc1cc(C)c(-n2c(SCCS(=O)(=O)c3ccc(F)cc3)n[nH]c2=O)c(C)c1 as the compound, how does the AC50 read?
**A.** Its AC50 is 17.8 µM [falling, partial curve, poor fit].

**Q.** For Cc1cc(C)cc(N2C(=O)CC(Sc3nnnn3-c3ccccc3)C2=O)c1 (centres undefined), which AC50 is on record?
**A.** The AC50 was 22.4 µM [falling, single point].

**Q.** For CCOC(=O)c1sc2c(c1C)c(=O)c(C(=O)OCC)cn2CC, which AC50 is on record?
**A.** Its AC50 is 17.8 µM [falling, partial curve, poor fit].

**Q.** For Cc1ccc(NC(=O)CSc2nnc(C3CCCCC3)n2N)cc1F, which AC50 is on record?
**A.** The AC50 was 7.08 µM [falling, partial curve, poor fit].

**Q.** For CC(C)Sc1nc2ccc(N3C(=O)C4CCCCC4C3=O)cc2s1 (centres undefined), which AC50 is on record?
**A.** Its AC50 is 7.31 µM [rising, partial curve].

**Q.** For Cc1ccc(-c2nc3c(c(=O)c4ccccc4n3C)c(=O)n2-c2ccc(F)cc2)cc1, which AC50 is on record?
**A.** Its AC50 is 7.94 µM [rising, partial curve, poor fit].

**Q.** For Cn1c(=NC(=O)c2ccc(F)cc2)sc2cc(Br)ccc21, which AC50 is on record?
**A.** The AC50 was 1.26 µM [rising, full curve, poor fit].

**Q.** With CCC(=O)NCCc1nc2cc(NC(=O)COc3ccccc3)ccc2n1C as the compound, how does the AC50 read?
**A.** Its AC50 is 22.4 µM [falling, partial curve].

**Q.** Which AC50 does the source give for CCCCOC(=O)Nc1ccccc1C(=O)N1CCCC1 here?
**A.** Its AC50 is 32.6 µM [rising, partial curve, poor fit].

**Q.** Which AC50 does the source give for CCC1(C)N=C(c2ccc3c(c2)OCO3)CC(c2ccccc2O)N1 (centres undefined) here?
**A.** The AC50 was 20.6 µM [falling, partial curve].

**Q.** For CSc1ncc(C(=O)Nc2ccc(Cl)cc2)c(C)n1, which AC50 is on record?
**A.** Its AC50 is 5.62 µM [falling, partial curve, poor fit].

**Q.** With Nc1cccc2c1C(=O)N(C(=O)c1ccc(S(=O)(=O)N3CCCCCC3)cc1)C2=O as the compound, how does the AC50 read?
**A.** Its AC50 is 29.1 µM [rising, single point].

**Q.** Which AC50 does the source give for Cc1ccc(OCC(=O)N2CCc3ccccc32)c([N+](=O)[O-])n1 here?
**A.** Its AC50 is 15.8 µM [rising, single point].

**Q.** For O=C(COc1ccc(Br)cc1Cl)NNC(=O)c1ccccc1, which AC50 is on record?
**A.** The AC50 was 2.59 µM [rising, full curve, poor fit].

**Q.** For CCOC(=O)c1cnn(-c2nc3sc4c(c3c(=O)[nH]2)CCCC4)c1N, which AC50 is on record?
**A.** The AC50 was 7.08 µM [falling, partial curve].

**Q.** Which AC50 does the source give for CN1CCC=C(C(=O)N2c3ccccc3Sc3ccc(Cl)cc32)C1 here?
**A.** The AC50 was 20 µM [falling, single point].

**Q.** For N=c1oc2ccccc2cc1C(=O)NCc1ccccc1, which AC50 is on record?
**A.** The AC50 was 35.5 µM [falling, single point].

**Q.** Which AC50 does the source give for CC(=O)Nc1nccc(-c2cc(-c3ccccc3)no2)n1 here?
**A.** Its AC50 is 8.91 µM [falling, partial curve, poor fit].

**Q.** For COc1ccc(/C=C/C(=O)O)cc1COc1ccccc1C, which AC50 is on record?
**A.** Its AC50 is 5.8 µM [falling, single point].

**Q.** With CCOC(=O)c1c(C)[nH]c(NC(=O)NNC(=O)c2ccc(OC)cc2)c1C as the compound, how does the AC50 read?
**A.** The AC50 was 14.6 µM [falling, partial curve, poor fit].

**Q.** Which AC50 does the source give for CC(=O)c1cccc(NC(=O)c2noc3c2CC(C)CC3)c1 (centres undefined) here?
**A.** The AC50 was 7.08 µM [rising, partial curve, poor fit].

**Q.** For CCN1CCN(Cc2ccc(NC(=O)CC3Oc4ccc(C)cc4NC3=O)cc2)CC1 (centres undefined), which AC50 is on record?
**A.** Its AC50 is 8.2 µM [falling, partial curve, poor fit].

**Q.** With O=C1CN(CC(=O)Nc2cccc(Cl)c2Cl)c2ccccc2N1 as the compound, how does the AC50 read?
**A.** Its AC50 is 28.2 µM [falling, single point].

**Q.** With COc1ccccc1C(=O)Nc1nnc(S(=O)(=O)N(C)Cc2ccccc2)s1 as the compound, how does the AC50 read?
**A.** The AC50 was 20 µM [rising, single point].

**Q.** With CC(C)(C)NS(=O)(=O)c1ccc(CCC(=O)N2CCCC2)cc1 as the compound, how does the AC50 read?
**A.** The AC50 was 3.16 µM [rising, full curve, poor fit].

**Q.** Which AC50 does the source give for O=C(Nc1ccc(N2CCOCC2)nc1)c1c(F)cccc1F here?
**A.** Its AC50 is 10 µM [falling, partial curve].

**Q.** For COC(=O)c1cc(=O)n(Cc2cccs2)c(=Nc2ccc(F)cc2)s1, which AC50 is on record?
**A.** Its AC50 is 11.2 µM [falling, partial curve, poor fit].

**Q.** Which AC50 does the source give for O=c1[nH]c2ccccc2n1CCCOc1ccccc1 here?
**A.** The AC50 was 0.794 µM [rising, full curve, poor fit].

**Q.** Which AC50 does the source give for CSC1=N/C(=C\C=C\c2cccs2)C(=O)S1 here?
**A.** The AC50 was 1.46 µM [rising, partial curve, poor fit].

**Q.** With CCc1ccc2nc(N(Cc3cccnc3)C(=O)c3cccs3)sc2c1 as the compound, how does the AC50 read?
**A.** The AC50 was 1.26 µM [falling, full curve].

**Q.** With CN1CCN(S(=O)(=O)c2ccc3c(c2)C(C)(C)C(=O)N3C)CC1 as the compound, how does the AC50 read?
**A.** Its AC50 is 35.5 µM [rising, single point].

**Q.** With Cc1cc(C=C2C(=O)c3ccccc3C2=O)c(C)n1-c1cccc(C(=O)O)c1 as the compound, how does the AC50 read?
**A.** Its AC50 is 35.5 µM [falling, single point].

**Q.** With N=C1C(c2nc3ccccc3[nH]2)=C(O)CN1C1CCCCC1 as the compound, how does the AC50 read?
**A.** Its AC50 is 7.94 µM [rising, partial curve, poor fit].

**Q.** Which AC50 does the source give for O=C(c1ccc(Cn2c(=S)[nH]c3ccc(N4CCOCC4)cc3c2=O)cc1)N1CCC(N2CCCCC2)CC1 here?
**A.** Its AC50 is 11.2 µM [falling, partial curve, poor fit].

**Q.** For CC(=NCCCn1ccnc1)C1=C(O)c2ccccc2C1=O, which AC50 is on record?
**A.** The AC50 was 14.1 µM [falling, partial curve, poor fit].

**Q.** For CCCOC(=O)c1ccc(NC(=O)c2ccoc2C)cc1, which AC50 is on record?
**A.** Its AC50 is 25.9 µM [falling, single point].

**Q.** For Cc1cccc(CS(=O)(=O)c2ncc(Cl)c(C(=O)NCc3ccc4c(c3)OCO4)n2)c1, which AC50 is on record?
**A.** Its AC50 is 35.5 µM [falling, single point].

**Q.** With CN1CCc2c(sc3c2C(=O)NC(c2ccc(-c4cccc(Cl)c4)o2)N3)C1 (centres undefined) as the compound, how does the AC50 read?
**A.** The AC50 was 2.82 µM [falling, full curve].

**Q.** Which AC50 does the source give for O=C(Nc1ccncc1)c1ccccc1Cl here?
**A.** Its AC50 is 35.5 µM [falling, single point].

**Q.** With Cc1cccc(NC(=O)CN(C)S(=O)(=O)c2ccc(Br)cc2)n1 as the compound, how does the AC50 read?
**A.** The AC50 was 0.82 µM [rising, full curve, poor fit].

**Q.** Which AC50 does the source give for COc1ccc(NC(=O)CS(=O)(=O)c2cn(CC(=O)N3CCOCC3)c3ccccc23)cc1OC here?
**A.** The AC50 was 35.5 µM [falling, single point].

**Q.** With Fc1ccccc1-n1cn[nH]c1=S as the compound, how does the AC50 read?
**A.** The AC50 was 35.5 µM [falling, single point].

**Q.** For Cc1ccc(CNC(=O)[C@H](C)NC(=O)C2CCN(C(=O)[C@@H](N)CC(C)C)CC2)cc1, which AC50 is on record?
**A.** Its AC50 is 20 µM [falling, partial curve, poor fit].

**Q.** With Cc1cccc(N(C(=O)c2csnn2)C(C(=O)NCc2ccccc2)c2ccncc2)c1 (centres undefined) as the compound, how does the AC50 read?
**A.** The AC50 was 0.794 µM [falling, partial curve, poor fit].

**Q.** For C[C@H](NC(=O)c1cc2cc(Cl)ccc2n1C)C(=O)N1CCC(C(=O)O)CC1, which AC50 is on record?
**A.** Its AC50 is 31.6 µM [rising, single point].

**Q.** With CC(C)(O)c1cc2ccc(C#CCCN3C(=O)c4ccccc4C3=O)cc2c(=O)o1 as the compound, how does the AC50 read?
**A.** The AC50 was 7.31 µM [rising, partial curve, poor fit].

**Q.** Which AC50 does the source give for Cc1ccc(-c2nn(-c3ccc(F)cc3)cc2C(=O)NC2CCC(O)CC2)cc1 (centres undefined) here?
**A.** Its AC50 is 14.6 µM [rising, partial curve, poor fit].

**Q.** For COc1cccc2sc3cc(NCC[C@@H]4CCCN4C)ccc3c(=O)c12, which AC50 is on record?
**A.** Its AC50 is 18.4 µM [falling, single point].

**Q.** With COc1ccc(C(=O)Nc2ccccc2C(=O)O)cc1NC(=O)C(c1ccccc1)c1ccccc1 as the compound, how does the AC50 read?
**A.** The AC50 was 2.82 µM [falling, full curve, poor fit].

**Q.** With COc1ccccc1C(=O)Nc1nc2ccccc2[nH]1 as the compound, how does the AC50 read?
**A.** The AC50 was 0.316 µM [falling, full curve].

**Q.** Which AC50 does the source give for O=C(Nc1ccc(Cl)cn1)Nc1cccs1 here?
**A.** Its AC50 is 14.6 µM [falling, single point].

**Q.** Which AC50 does the source give for Cc1cc(N2CCOCC2)nc(SCC(=O)c2ccccc2)n1 here?
**A.** The AC50 was 10 µM [falling, partial curve].

**Q.** With Cc1ccc(-c2ccc(/C=C(\C#N)C(=O)Nc3cc(C)nn3-c3ccccc3)o2)cc1 as the compound, how does the AC50 read?
**A.** The AC50 was 29.1 µM [falling, single point].

**Q.** With COc1ccc(CCC(=O)NCc2ccccc2Cl)cc1OC as the compound, how does the AC50 read?
**A.** The AC50 was 12.6 µM [rising, partial curve, poor fit].
